Results are given in words; binding and its absence hold for the method and conditions named. In cells and extracts the contact can be indirect. Where a sequence is shown, tags or fusion partners need not be part of it.
Biological target: T1, Flag-ORC1, ectopic (human) (UniProt Q13415)
T1 sequence: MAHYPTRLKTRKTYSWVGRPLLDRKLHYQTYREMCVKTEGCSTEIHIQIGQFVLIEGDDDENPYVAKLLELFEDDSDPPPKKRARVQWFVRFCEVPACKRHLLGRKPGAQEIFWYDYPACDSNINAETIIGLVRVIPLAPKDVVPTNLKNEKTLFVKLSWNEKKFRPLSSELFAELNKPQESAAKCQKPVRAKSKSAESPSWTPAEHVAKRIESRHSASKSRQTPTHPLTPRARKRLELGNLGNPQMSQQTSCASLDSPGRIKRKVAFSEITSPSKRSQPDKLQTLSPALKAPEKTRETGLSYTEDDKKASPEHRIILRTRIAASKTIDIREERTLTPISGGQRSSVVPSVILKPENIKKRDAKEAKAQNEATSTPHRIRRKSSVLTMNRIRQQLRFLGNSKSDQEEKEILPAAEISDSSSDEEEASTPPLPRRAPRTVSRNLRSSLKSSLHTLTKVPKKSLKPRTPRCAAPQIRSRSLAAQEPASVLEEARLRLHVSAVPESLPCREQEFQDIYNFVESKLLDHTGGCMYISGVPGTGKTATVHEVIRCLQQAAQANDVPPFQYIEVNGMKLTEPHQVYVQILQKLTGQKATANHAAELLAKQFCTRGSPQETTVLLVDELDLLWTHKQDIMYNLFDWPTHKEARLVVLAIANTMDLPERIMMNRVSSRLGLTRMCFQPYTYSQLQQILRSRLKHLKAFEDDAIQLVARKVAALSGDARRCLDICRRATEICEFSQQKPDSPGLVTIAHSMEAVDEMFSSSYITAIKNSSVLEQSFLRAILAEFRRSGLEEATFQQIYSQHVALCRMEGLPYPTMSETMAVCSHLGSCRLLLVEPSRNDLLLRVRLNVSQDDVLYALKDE
Assay: co-IP; transfected cells lysed in TK300 buffer (20 mM Tris-HCl pH 7.9, 300 mM KCl, 5 mM MgCl2, 10% glycerol, 0.5% NP-40); anti-Flag agarose beads, 4 h at 4 °C; western blotting

By UniProt entry, the sequences of proteins in these tests, tags left out. Where a name states a change or a piece, a line headed by the entry shows the natural chain unless it says otherwise.
UniProt Q5W0B1: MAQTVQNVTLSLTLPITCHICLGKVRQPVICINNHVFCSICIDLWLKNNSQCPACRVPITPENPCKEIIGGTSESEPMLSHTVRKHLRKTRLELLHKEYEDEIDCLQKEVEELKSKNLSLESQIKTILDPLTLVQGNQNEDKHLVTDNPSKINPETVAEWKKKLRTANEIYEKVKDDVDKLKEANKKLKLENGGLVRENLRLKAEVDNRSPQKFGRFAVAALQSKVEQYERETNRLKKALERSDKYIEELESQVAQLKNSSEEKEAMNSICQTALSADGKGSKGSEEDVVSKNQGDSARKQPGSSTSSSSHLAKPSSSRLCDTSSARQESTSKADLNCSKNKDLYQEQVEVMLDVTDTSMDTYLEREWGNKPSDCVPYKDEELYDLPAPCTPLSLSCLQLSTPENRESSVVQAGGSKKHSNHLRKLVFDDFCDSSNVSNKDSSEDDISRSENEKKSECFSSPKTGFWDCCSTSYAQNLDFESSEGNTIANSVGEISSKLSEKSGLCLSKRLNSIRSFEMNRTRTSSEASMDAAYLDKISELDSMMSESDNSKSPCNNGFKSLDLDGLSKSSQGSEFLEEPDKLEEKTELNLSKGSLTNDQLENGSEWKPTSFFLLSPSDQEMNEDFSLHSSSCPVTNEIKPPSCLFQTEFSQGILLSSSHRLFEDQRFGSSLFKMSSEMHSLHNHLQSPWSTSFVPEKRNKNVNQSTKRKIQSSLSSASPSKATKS

OBI1 deletion mutant lacking the coiled-coil domain (from UniProt Q5W0B1) (enzyme)
binding: no binding

OBI1 deletion mutant lacking the C-terminal extension (human) (domain or fragment)
binding: no binding

— PMC6547688
